The results in this text go back to publication doi:10.1101/388868.

Positions count from the first letter of the chain named. No constants are given. Whether binding was seen depends on the method and setting.

The target of experiment [1] is C. elegans UNC-10 residues 62-121 WT (C. elegans) (UniProt Q22366). The experiment can be described thus: SEC.
Experiment [2] has as its target C. elegans UNC-10 62-121 K77/79E mutant (C. elegans) (UniProt Q22366). Briefly: SEC. A general note: Size exclusion chromatography separates by hydrodynamic size, large species first.

B1: C. elegans UNC-10 residues 62-121 WT (domain or fragment, UniProt Q22366 62-121)
chain: KLVGTQDDAICQICQKTKFADGIGHKCFYCQLRSCARCGGRAQSKNKAIWACSLCQKRQQ
B1: the binding entry in experiment [1] was “no binding”.

B2: C. elegans UNC-10 62-121 K77/79E mutant (domain or fragment, UniProt Q22366 62-121)
chain: B1 chain with K16E, K18E
With B2, the binding entry in experiment [2] was “no binding”.
